Results reported in patent US20150071931A1.
No constants are given. Whether binding was seen depends on the method and setting. Some binding calls cover weakened binding; strength is not graded here. For some assays here: Tags and fused reporters may be left off the sequences shown.

Tests used:
[1] = molecular target: T1, bacterially expressed Nono-6×His fusion protein (pEXP5-CT-Nono-6×His in E. coli BL21 (DE3)) (human) (UniProt Q15233); assay: Western blot (figure legend)
T1 sequence: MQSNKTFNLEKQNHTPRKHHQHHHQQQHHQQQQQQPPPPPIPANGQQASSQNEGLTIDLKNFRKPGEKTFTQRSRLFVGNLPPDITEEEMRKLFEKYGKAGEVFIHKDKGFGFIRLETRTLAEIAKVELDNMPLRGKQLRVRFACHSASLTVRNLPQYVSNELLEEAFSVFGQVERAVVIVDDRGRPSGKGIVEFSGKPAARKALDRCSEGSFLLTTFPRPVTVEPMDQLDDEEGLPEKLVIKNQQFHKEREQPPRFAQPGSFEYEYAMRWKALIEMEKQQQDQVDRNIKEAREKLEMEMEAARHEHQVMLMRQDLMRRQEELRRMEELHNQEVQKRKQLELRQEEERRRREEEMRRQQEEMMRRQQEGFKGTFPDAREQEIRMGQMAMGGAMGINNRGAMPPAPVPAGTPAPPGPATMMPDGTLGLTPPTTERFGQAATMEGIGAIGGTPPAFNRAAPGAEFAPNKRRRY

[2] = molecular target: T2, recombinant Nono-6×His fusion protein expressed in HEK293 cells (pcDNA3.1-V5-His-Nono-6×His; clone HEK293-Nono-6×His-A9) (human) (UniProt Q15233); assay: Western blot (figure legend)
T2 sequence: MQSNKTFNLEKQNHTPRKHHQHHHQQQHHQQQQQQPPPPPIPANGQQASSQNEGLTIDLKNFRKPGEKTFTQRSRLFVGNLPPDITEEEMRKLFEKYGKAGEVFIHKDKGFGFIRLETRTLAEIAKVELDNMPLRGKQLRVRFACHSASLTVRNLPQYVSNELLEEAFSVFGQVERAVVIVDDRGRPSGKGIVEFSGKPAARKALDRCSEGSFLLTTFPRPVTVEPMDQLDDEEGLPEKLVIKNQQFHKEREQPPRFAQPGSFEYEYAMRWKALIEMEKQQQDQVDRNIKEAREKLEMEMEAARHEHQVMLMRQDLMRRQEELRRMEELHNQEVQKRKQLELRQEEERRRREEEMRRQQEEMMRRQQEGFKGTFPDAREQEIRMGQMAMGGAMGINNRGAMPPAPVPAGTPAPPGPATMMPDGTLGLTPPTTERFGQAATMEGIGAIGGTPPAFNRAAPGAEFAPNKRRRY

[3] = molecular target: T1, bacterially expressed Nono-6×His fusion protein (pEXP5-CT-Nono-6×His in E. coli BL21 (DE3)) (human); assay: ELISA, nmt55 coated on the plate
[4] = molecular target: T3, non-POU domain-containing octamer-binding protein (NONO), endogenous, of human tumor cell lines (cell surface / membrane extracts / lysates) (human) (UniProt Q15233); assay: FACS on A549, BxPC-3 and MKN cells
T3 sequence: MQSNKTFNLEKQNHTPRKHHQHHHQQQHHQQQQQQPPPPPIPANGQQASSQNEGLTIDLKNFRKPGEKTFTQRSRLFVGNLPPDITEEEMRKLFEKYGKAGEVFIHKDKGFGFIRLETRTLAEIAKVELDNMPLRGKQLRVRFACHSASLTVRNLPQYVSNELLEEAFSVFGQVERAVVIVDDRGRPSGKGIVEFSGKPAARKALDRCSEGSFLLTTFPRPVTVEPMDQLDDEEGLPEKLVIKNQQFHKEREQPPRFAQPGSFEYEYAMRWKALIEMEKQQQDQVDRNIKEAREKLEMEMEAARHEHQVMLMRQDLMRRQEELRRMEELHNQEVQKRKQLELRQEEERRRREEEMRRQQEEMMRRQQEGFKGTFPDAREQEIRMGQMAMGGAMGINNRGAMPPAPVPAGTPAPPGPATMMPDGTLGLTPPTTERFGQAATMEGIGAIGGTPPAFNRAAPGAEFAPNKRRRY

[5] = molecular target: T3, non-POU domain-containing octamer-binding protein (NONO), endogenous, of human tumor cell lines (cell surface / membrane extracts / lysates) (human); assay: FACS on living human cancer cell lines
[6] = molecular target: T1, bacterially expressed Nono-6×His fusion protein (pEXP5-CT-Nono-6×His in E. coli BL21 (DE3)) (human); assay: Western blot of E. coli BL21 (DE3) expressed protein
[7] = molecular target: T1, bacterially expressed Nono-6×His fusion protein (pEXP5-CT-Nono-6×His in E. coli BL21 (DE3)) (human); assay: Western blot of E. coli BL21 lysates with LM-1
[8] = molecular target: T1, bacterially expressed Nono-6×His fusion protein (pEXP5-CT-Nono-6×His in E. coli BL21 (DE3)) (human); assay: ELISA, nmt55 coated on the plate, secondary antibody-HRP
[9] = molecular target: T3, non-POU domain-containing octamer-binding protein (NONO), endogenous, of human tumor cell lines (cell surface / membrane extracts / lysates) (human); assay: FACS on A549 cells stably transfected with NONO antisense
[10] = molecular target: T1, bacterially expressed Nono-6×His fusion protein (pEXP5-CT-Nono-6×His in E. coli BL21 (DE3)) (human); assay: Western blot of bacterially expressed protein (reference to Example 16)
[11] = molecular target: T3, non-POU domain-containing octamer-binding protein (NONO), endogenous, of human tumor cell lines (cell surface / membrane extracts / lysates) (human); assay: Western blot of lysates of siRNA transfected BxPc-3 cells (figure legend)
[12] = molecular target: T3, non-POU domain-containing octamer-binding protein (NONO), endogenous, of human tumor cell lines (cell surface / membrane extracts / lysates) (human); assay: anti-nmt55 immunoprecipitate of A549 cells; Western blot with LM-1
[13] = molecular target: T3, non-POU domain-containing octamer-binding protein (NONO), endogenous, of human tumor cell lines (cell surface / membrane extracts / lysates) (human); assay: FACS, 10,000 cells per cell line, antibody at 100 ug/ml, anti-human IgM FITC
[14] = molecular target: T3, non-POU domain-containing octamer-binding protein (NONO), endogenous, of human tumor cell lines (cell surface / membrane extracts / lysates) (human); assay: LM-1 blots of fractionated BxPC-3 membrane preparation with MALDI identification
[15] = molecular target: T3, non-POU domain-containing octamer-binding protein (NONO), endogenous, of human tumor cell lines (cell surface / membrane extracts / lysates) (human); assay: Western blot of whole cell lysate from transfected BxPc cells, stained with LM-1
[16] = molecular target: T3, non-POU domain-containing octamer-binding protein (NONO), endogenous, of human tumor cell lines (cell surface / membrane extracts / lysates) (human); assay: anti-nmt55 immunoprecipitate of BxPC-3 membrane preparation; Western blot with LM-1
[17] = molecular target: T2, recombinant Nono-6×His fusion protein expressed in HEK293 cells (pcDNA3.1-V5-His-Nono-6×His; clone HEK293-Nono-6×His-A9) (human); assay: Western blot of HEK293-Nono-6×His-A9 and HEK293 wt cell lysate, LM-1 and anti-human-IgM-HRP
[18] = molecular target: T3, non-POU domain-containing octamer-binding protein (NONO), endogenous, of human tumor cell lines (cell surface / membrane extracts / lysates) (human); assay: Western blot of lysates of BxPc-3 cells transfected with NONO/nmt55 siRNA, stained with LM-1 IgM
[19] = molecular target: T3, non-POU domain-containing octamer-binding protein (NONO), endogenous, of human tumor cell lines (cell surface / membrane extracts / lysates) (human); assay: 2D-PAGE and chromatography of BxPC-3 extracts, blotting with LM-1, MALDI peptide mass fingerprint
[20] = molecular target: T2, recombinant Nono-6×His fusion protein expressed in HEK293 cells (pcDNA3.1-V5-His-Nono-6×His; clone HEK293-Nono-6×His-A9) (human); assay: Western blot of HEK293-Nono-6xHis-A9 and HEK293wt lysates with LM-1 and anti-human-IgM-HRP
[21] = molecular target: T3, non-POU domain-containing octamer-binding protein (NONO), endogenous, of human tumor cell lines (cell surface / membrane extracts / lysates) (human); assay: anti-nmt55 immunoprecipitate of MKN membrane preparation; Western blot with LM-1 and anti human IgM HRP
[22] = molecular target: T3, non-POU domain-containing octamer-binding protein (NONO), endogenous, of human tumor cell lines (cell surface / membrane extracts / lysates) (human); assay: Western blot of HEK293-Nono-6xHis-A9 and HEK293wt lysates with LM-1 and anti-human-IgM-HRP; endogenous Nono of HEK293 cells
[23] = molecular target: T3, non-POU domain-containing octamer-binding protein (NONO), endogenous, of human tumor cell lines (cell surface / membrane extracts / lysates) (human); assay: FACS on A549 and BxPc-3 cells, anti-human IgG-FITC

Measured: binding

B1: LM-1 human monoclonal IgM antibody produced by hybridoma (trioma) cell line DSMZ Deposit No. DSM ACC 2623 (antibody, V domains shown)
VH: QVQLQESGPGLVKPSPTLSLTCAVSGGSISSGGYYWSWIRQHPGKGLEWIGYIYYSGSTYYNPSLKSRVTISVDTSKNQFSLKLSSVTAADTAVYYCARVDARYDYVWGSYRYDAFDIWGQGTMVTVSS
VL: QSVLTQPPSVSAAPGQKVTISCSGSSSNIGNNYVSWYQQLPGTAPKLLIYDNNKRPSGIPDRFSGSKSGTSATLGITGLQTGDEADYYCGTWDSSLSAGWVFGGGTKLTVLG
not listed: [23]
binds: all other assays above

B2: isotype switched LM1 IgG antibody (expressed from pVitro2-LM1-HC-LC in HEK293 cells) (antibody, V domains shown, not shown: a dimerising Fc or GST)
VH: QVQLQESGPGLVKPSPTLSLTCAVSGGSISSGGYYWSWIRQHPGKGLEWIGYIYYSGSTYYNPSLKSRVTISVDTSKNQFSLKLSSVTAADTAVYYCARVDARYDYVWGSYRYDAFDIWGQGTMVTVSS
VL: QSVLTQPPSVSAAPGQKVTISCSGSSSNIGNNYVSWYQQLPGTAPKLLIYDNNKRPSGIPDRFSGSKSGTSATLGITGLQTGDEADYYCGTWDSSLSAGWVFGGGTKLTVLG
binds: [23]
